Results published in patent US6027884.
For at least one entry, the source does not settle the construct or the ends of the probe. Whether high values mean tight binding is not given here for every scale.

Amino acid sequences for entries named in this document (tags omitted). Residues count along the entry.
UniProt P00639, 23-282: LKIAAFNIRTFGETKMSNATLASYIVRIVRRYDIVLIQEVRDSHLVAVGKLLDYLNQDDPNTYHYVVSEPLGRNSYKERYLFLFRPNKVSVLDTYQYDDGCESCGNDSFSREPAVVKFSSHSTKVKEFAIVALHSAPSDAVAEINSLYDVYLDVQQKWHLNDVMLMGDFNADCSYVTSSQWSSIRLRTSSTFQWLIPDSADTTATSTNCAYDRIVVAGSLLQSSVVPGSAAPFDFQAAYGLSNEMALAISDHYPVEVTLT

Molecular target: DNase I (UniProt P00639)
Assay: enzyme reaction in vitro
Conditions: CITED Huang et al. 1988, purified native protein, label: labeled (Cherenkov-counted)

Row | Sequence | activity signal (reference for kobs ratio, (AT)3 at least 2-fold faster) | activity signal (fold vs (AA)3) (kobs ratio (AT)3/(AA)3)
1 | AAAAAAAGCTTTTTTT (double strand) [(AA)3 AGCT(TT)3] | 1 reference | 
2 | ATATATAGCTATATAT (double strand) [(AT)3 AGCT(AT)3] |  | > 2
